Publication PMC12072338, “Allosteric Modulation of GCase Enhances Lysosomal Activity and Reduces ER Stress in GCase-Related Disorders” (International Journal of Molecular Sciences, 2025)
Results are given in words; binding and its absence hold for the method and conditions named. In cells and extracts the contact can be indirect. Some binding calls cover weakened binding; strength is not graded here. Where a sequence is shown, tags or fusion partners need not be part of it.

The chains behind the UniProt entries cited, without tags or fusion partners. Residues count along the entry.
UniProt P11021, residues 19-654: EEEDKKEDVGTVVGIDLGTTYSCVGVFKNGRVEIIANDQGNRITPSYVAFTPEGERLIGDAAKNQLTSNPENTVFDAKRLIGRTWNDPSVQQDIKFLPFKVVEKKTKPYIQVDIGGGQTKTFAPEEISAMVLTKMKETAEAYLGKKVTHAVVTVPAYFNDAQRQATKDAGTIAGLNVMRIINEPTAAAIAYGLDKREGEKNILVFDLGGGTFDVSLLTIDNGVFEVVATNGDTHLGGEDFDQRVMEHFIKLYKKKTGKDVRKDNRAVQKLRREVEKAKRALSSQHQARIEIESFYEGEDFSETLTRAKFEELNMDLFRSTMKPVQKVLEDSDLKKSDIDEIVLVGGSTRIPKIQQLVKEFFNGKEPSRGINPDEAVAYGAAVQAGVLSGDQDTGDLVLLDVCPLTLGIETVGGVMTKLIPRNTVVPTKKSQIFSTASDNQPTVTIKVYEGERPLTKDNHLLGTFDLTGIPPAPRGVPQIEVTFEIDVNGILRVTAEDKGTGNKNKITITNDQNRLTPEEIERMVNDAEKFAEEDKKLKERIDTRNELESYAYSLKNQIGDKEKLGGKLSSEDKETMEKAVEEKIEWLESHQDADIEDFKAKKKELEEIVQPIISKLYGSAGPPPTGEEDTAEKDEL

Molecular target: T1, GCase_(Leu444Pro)-HA (human) (UniProt P04062)
T1 sequence: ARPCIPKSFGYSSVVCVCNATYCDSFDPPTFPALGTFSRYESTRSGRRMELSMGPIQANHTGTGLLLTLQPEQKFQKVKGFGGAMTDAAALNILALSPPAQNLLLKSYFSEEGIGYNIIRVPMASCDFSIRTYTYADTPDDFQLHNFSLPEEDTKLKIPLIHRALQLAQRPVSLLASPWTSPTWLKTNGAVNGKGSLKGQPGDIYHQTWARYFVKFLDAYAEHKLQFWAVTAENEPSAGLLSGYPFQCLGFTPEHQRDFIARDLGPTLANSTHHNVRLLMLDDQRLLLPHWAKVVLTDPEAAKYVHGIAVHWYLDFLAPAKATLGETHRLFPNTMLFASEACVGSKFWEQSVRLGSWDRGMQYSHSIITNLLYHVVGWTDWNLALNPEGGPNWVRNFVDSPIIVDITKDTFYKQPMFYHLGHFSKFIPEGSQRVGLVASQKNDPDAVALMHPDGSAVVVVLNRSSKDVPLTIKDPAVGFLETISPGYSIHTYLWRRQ
Assay: co-IP; HEK293 cells transiently expressing GCase-HA variants; lysate incubated with bait antibody and protein A beads, 4 °C, 4 h; washed with 0.5% Triton X-100 in HBS pH 7.4; Western blot for CNX, BiP and GCase-HA

- binding: binds
Substance: binding immunoglobulin protein (BiP), endogenous in HEK293 cells (from UniProt P11021 19-654)
